# Results from one PubChem assay

The results are deposited in PubChem (AID1224904; Broad Institute, 2016).

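Selective DUX4 reporter inhibition in doxycycline-induced 293T-iDUX4 cells, scored as Gaussia percent activity minus Italica percent activity, after a 24-hour treatment.
The test concentration is not given here.
Percent difference between the Gaussia and Italica channels; more negative values mean more selective suppression of the DUX4 reporter, and higher values mean less activity.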

Values are in %.
How 0% and 100% were set is not given here.
Common to all entries: measured here: selective DUX4 reporter inhibition.
Part of the compounds only, not a random draw; the main read-out is not listed here.

| SMILES | Gaussia minus Italica difference (%) |
|---|---|
| `O=C(C[C@H]1CC[C@H]2[C@@H](COC[C@@H](O)CN2CCc2ccccc2)O1)NCc1ccc(F)cc1` | -10.63 |
| `O=C(Nc1cc(F)ccc1F)N1CCCCN2[C@H](CO)[C@H](c3ccc(C4=CCCCC4)cc3)[C@H]2C1` | 5.431 |
| `C[C@H](CO)N1C[C@H](C)[C@@H](CN(C)Cc2cccc3c2OCCCO3)OCc2ccccc2-c2c(n(C)c3ccccc23)C1=O` | -24 |
| `COc1cccc(S(=O)(=O)Nc2ccc3c(c2)[C@@H]2C[C@@H](CC(=O)NCc4ccc(Cl)cc4)O[C@@H](CO)[C@@H]2O3)c1` | 15.86 |
| `Cc1ccc(S(=O)(=O)N2CC[C@@H]3[C@H](CO)N(C)c4ccc(-c5ccc(C#N)cc5)cc4[C@@H]32)cc1` | 10.95 |
| `CN(C)C(=O)C[C@H]1CC[C@@H]2[C@H](COC[C@@H](O)CN2Cc2ccc(C(F)(F)F)cc2)O1` | -13.4 |
| `CC(=O)N1CC2(C1)[C@H](c1ccc(-c3cccc(F)c3)cc1)[C@H](CO)N2CC1CCCC1` | -19.01 |
| `CCC(=O)N1CCC2(CC1)CN(Cc1cc(F)ccc1F)[C@H](CO)c1[nH]c3cc(OC)ccc3c12` | -13.75 |
| `CO[C@H]1CN(C)C(=O)c2cc(NC(=O)c3ccc(Oc4ccccc4)cc3)ccc2OC[C@H](C)NC[C@H]1C` | 22.1 |
| `COc1ccc2c3c([nH]c2c1)[C@H](CO)N(Cc1ccccc1)CC31CN(C(=O)c2ccccn2)C1` | -11.08 |
| `COc1ccc(C#Cc2ccc([C@@H]3[C@H]4CN(C(=O)c5ccc(F)cc5)CC(=O)N4[C@H]3CO)cc2)cc1` | -6.675 |
| `COc1ccc2c3c([nH]c2c1)[C@@H](CO)N(Cc1ccc(Cl)cc1)CC31CN(S(C)(=O)=O)C1` | -21.48 |
| `O=C(NC1CCC1)[C@@H]1[C@@H](CO)[C@@H]2Cn3c(cccc3=O)[C@@H]2N1CCc1ccccc1` | -17.38 |
| `C/C=C/c1ccccc1[C@H]1[C@@H](CO)N(c2nc(CC)cs2)[C@H]1C#N` | 6.826 |
| `CCC(=O)N1CCCCN2[C@H](CO)[C@H](c3ccc(-c4ccc(F)cc4)cc3)[C@@H]2C1` | -2.211 |
| `O=C(NCC1CC1)[C@H]1[C@H](CO)[C@H]2Cn3c(ccc(-c4cccc(F)c4)c3=O)[C@H]2N1CC1CCCC1` | -2.608 |
| `OC[C@H]1[C@@H](c2ccc(-c3cccc(F)c3)cc2)[C@@H]2CN(CCC(F)(F)F)CCCCN12` | -23.33 |
| `COc1ccccc1S(=O)(=O)N1CC[C@@H]2[C@H]1c1cc(-c3cccc(C#N)c3)ccc1N[C@@H]2CO` | 23 |
| `COc1ccccc1CN1[C@H](CO)[C@@H](c2ccccc2)C12CN(C(=O)c1cnccn1)C2` | -12.78 |
| `O=C(c1ccc(F)cc1)N1CCCCN2[C@H](C1)[C@@H](c1ccc(-c3ccccc3)cc1)[C@@H]2CO` | -2.124 |
| `COc1ccc2c3c(n(C)c2c1)[C@H](CO)N(C(=O)c1ccccc1)CC31CN(C)C1` | -19.87 |
| `COc1cccc(-c2ccc3c(c2)[C@@H]2[C@@H](CCN2S(=O)(=O)c2ccc(F)cc2)[C@H](CO)N3C)c1` | 25.66 |
| `O=C(C[C@@H]1CC[C@H]2[C@@H](COC[C@H](O)CN2Cc2ccc(F)cc2)O1)NCCc1ccccc1` | -9.033 |
| `O=C(Nc1cccc(F)c1)N1CCCCN2[C@H](CO)[C@H](c3ccc(C#Cc4cccnc4)cc3)[C@@H]2C1` | -0.9337 |
| `CCC(=O)N1CC2(CCN(Cc3ccc(Cl)cc3)CC2)c2c([nH]c3cc(OC)ccc23)[C@@H]1CO` | 21.42 |
| `COc1cccc(CN2CC3(CCN(C)CC3)c3c([nH]c4cc(OC)ccc34)[C@H]2CO)c1` | -2.074 |
| `Cc1cccc(-c2ccccc2[C@H]2[C@@H](C#N)N(c3ncc(-c4ccccc4)s3)[C@H]2CO)c1` | -6.722 |
| `O=C(Cc1ccccc1)N1CC2(C1)[C@H](c1ccccc1)[C@H](CO)N2Cc1cccc(Cl)c1` | 1.045 |
| `COc1ccc2c3c([nH]c2c1)[C@@H](CO)N(S(=O)(=O)c1cn(C)cn1)CC31CCN(Cc2ccccc2F)CC1` | 14.19 |
| `O=C(CC1CC1)N1CC[C@@H]2[C@H](CO)Nc3ccc(-c4ccc(F)cc4)cc3[C@@H]21` | -13.71 |
| `COc1ccc2c3c(n(C)c2c1)[C@H](CO)N(CC1CC1)CC31CCN(S(=O)(=O)c2cccs2)CC1` | -4.308 |
| `O=C1CN(S(=O)(=O)Cc2ccccc2)C[C@H]2[C@@H](c3ccc(C#Cc4ccccc4)cc3)[C@@H](CO)N12` | -11.46 |
| `COc1ccc(C#Cc2ccc([C@@H]3[C@@H](CO)N4CCCCN(C(=O)Nc5cccc(F)c5)C[C@@H]34)cc2)cc1` | -11.73 |
| `N#Cc1cccc(-c2ccc([C@H]3[C@@H](CO)N4CCCCN(Cc5ccccc5F)C[C@@H]34)cc2)c1` | -6.94 |
| `COc1cccc(C#Cc2ccc([C@H]3[C@@H](CO)N4C(=O)CN(S(=O)(=O)c5ccccc5C)C[C@H]34)cc2)c1` | 1.444 |
| `C[C@H](CO)N1C[C@H](C)[C@H](CN(C)C(=O)[C@H](C)c2ccccc2)OCc2ccccc2-c2ccccc2C1=O` | -17.76 |
| `O=C(Nc1cccc(F)c1)N1CC(=O)N2[C@@H](CO)[C@H](c3ccc(C#CC4CC4)cc3)[C@@H]2C1` | -17.59 |
| `CN1c2ccc(C#Cc3cccnc3)cc2[C@@H]2[C@@H](CCN2C(=O)c2cccc(F)c2)[C@@H]1CO` | -12.94 |
| `O=C(Nc1ccccc1)Nc1ccc2c(c1)[C@@H]1C[C@@H](CC(=O)N3CCCCC3)O[C@@H](CO)[C@@H]1O2` | -20.87 |
| `N#C[C@@H]1[C@@H](c2ccccc2-c2ccccc2)[C@H](CO)N1C(=O)NC1CCCC1` | -11.72 |
| `O=C(C[C@@H]1CC[C@H]2[C@@H](COC[C@@H](O)CN2CCC(F)(F)F)O1)NCc1ccc(Oc2ccccc2)cc1` | -2.284 |